Some of the results follow.
Tests used:
Assay in all cases: glycan array binding signal (z-score within array); higher = stronger binding
Details in all cases: glycan notation: IUPAC condensed, linker removed
[1] = target: Neu5Ac(a2-3)Gal(b1-3)GlcNAc(b1-2)Man
How it was run: (§1)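 Glycan array data came from 3228 arrays in the Consortium for Functional Glycomics database, and only arrays with an available protein sequence were kept. Glycan names were put into IUPAC-condensed notation, and columns mapping to the same glycan were averaged. The binding signal is a within-array Z-score, averaged across arrays of one protein sequence run at different concentrations or buffers and across linkers. A negative Z-score can be read as non-binding.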

[2] = target: Neu5Ac(a2-3)Gal(b1-3)GlcNAc(b1-2)Man(a1-3)[GlcNAc(b1-4)][Neu5Ac(a2-3)Gal(b1-3)GlcNAc(b1-2)Man(a1-6)]Man(b1-4)GlcNAc(b1-4)GlcNAc
How it was run: as §1

[3] = target: Neu5Ac(a2-3)Gal(b1-3)GlcNAc(b1-2)Man(a1-3)[Neu5Ac(a2-3)Gal(b1-3)GlcNAc(b1-2)Man(a1-6)]Man(b1-4)GlcNAc(b1-4)GlcNAc
How it was run: as §1

[4] = target: Neu5Ac(a2-3)Gal(b1-3)GlcNAc(b1-3)Gal(b1-3)GlcNAc
How it was run: as §1

[5] = target: Neu5Ac(a2-3)Gal(b1-3)GlcNAc(b1-3)Gal(b1-4)GlcNAc
How it was run: as §1

[6] = target: Neu5Ac(a2-3)Gal(b1-3)GlcNAc(b1-3)GalNAc
How it was run: as §1

[7] = target: Neu5Ac(a2-3)Gal(b1-3)GlcNAc(b1-4)Gal(b1-4)Glc
How it was run: as §1

[8] = target: Neu5Ac(a2-3)Gal(b1-3)GlcNAc(b1-6)GalNAc
How it was run: as §1

[9] = target: Neu5Ac(a2-3)Gal(b1-3)GlcNAc6S
How it was run: as §1

[10] = target: Neu5Ac(a2-3)Gal(b1-3)[Fuc(a1-4)]GlcNAc
How it was run: as §1

[11] = target: Neu5Ac(a2-3)Gal(b1-3)[Fuc(a1-4)]GlcNAc(b1-3)Gal(b1-3)[Fuc(a1-4)]GlcNAc
How it was run: as §1

[12] = target: Neu5Ac(a2-3)Gal(b1-3)[Fuc(a1-4)]GlcNAc(b1-3)Gal(b1-4)[Fuc(a1-3)]GlcNAc
How it was run: as §1

[13] = target: Neu5Ac(a2-3)Gal(b1-3)[GlcNAc(b1-6)]GalNAc
How it was run: as §1

[14] = target: Neu5Ac(a2-3)Gal(b1-3)[Neu5Ac(a2-6)]GalNAc
How it was run: as §1

[15] = target: Neu5Ac(a2-3)Gal(b1-3)[Neu5Ac(a2-6)]GlcNAc(b1-3)[Fuc(a1-3)[Gal(b1-4)]GlcNAc(b1-6)]Gal(b1-4)Glc
How it was run: as §1

[16] = target: Neu5Ac(a2-3)Gal(b1-3)]Neu5Ac(a2-3)Gal(b1-4)]GlcNAc
How it was run: as §1

Neu5Ac(a2-3)Gal(b1-4)Glc = target: Neu5Ac(a2-3)Gal(b1-4)Glc
How it was run: as §1

[17] = target: Neu5Ac(a2-3)Gal(b1-4)GlcNAc
How it was run: as §1

[18] = target: Neu5Ac(a2-3)Gal(b1-4)GlcNAc(b1-2)Man
How it was run: as §1

[19] = target: Neu5Ac(a2-3)Gal(b1-4)GlcNAc(b1-2)Man(a1-3)[GlcNAc(b1-4)][Neu5Ac(a2-3)Gal(b1-4)GlcNAc(b1-2)Man(a1-6)]Man(b1-4)GlcNAc(b1-4)GlcNAc
How it was run: as §1

[20] = target: Neu5Ac(a2-3)Gal(b1-4)GlcNAc(b1-2)Man(a1-3)[Neu5Ac(a2-3)Gal(b1-4)GlcNAc(b1-2)Man(a1-6)]Man(b1-4)GlcNAc(b1-4)GlcNAc
How it was run: as §1

[21] = target: Neu5Ac(a2-3)Gal(b1-4)GlcNAc(b1-2)Man(a1-3)[Neu5Ac(a2-3)Gal(b1-4)GlcNAc(b1-2)Man(a1-6)]Man(b1-4)GlcNAc(b1-4)[Fuc(a1-6)]GlcNAc
How it was run: as §1

[22] = target: Neu5Ac(a2-3)Gal(b1-4)GlcNAc(b1-2)Man(a1-3)[Neu5Ac(a2-6)Gal(b1-4)GlcNAc(b1-2)Man(a1-6)]Man(b1-4)GlcNAc(b1-4)GlcNAc
How it was run: as §1

[23] = target: Neu5Ac(a2-3)Gal(b1-4)GlcNAc(b1-2)[Neu5Ac(a2-3)Gal(b1-4)GlcNAc(b1-4)]Man(a1-3)[GlcNAc(b1-4)][Neu5Ac(a2-3)Gal(b1-4)GlcNAc(b1-2)[Neu5Ac(a2-3)Gal(b1-4)GlcNAc(b1-6)]Man(a1-6)]Man(b1-4)GlcNAc(b1-4)GlcNAc
How it was run: as §1

[24] = target: Neu5Ac(a2-3)Gal(b1-4)GlcNAc(b1-2)[Neu5Ac(a2-3)Gal(b1-4)GlcNAc(b1-4)]Man(a1-3)[GlcNAc(b1-4)][Neu5Ac(a2-3)Gal(b1-4)GlcNAc(b1-4)Man(a1-6)]Man(b1-4)GlcNAc(b1-4)GlcNAc
How it was run: as §1

[25] = target: Neu5Ac(a2-3)Gal(b1-4)GlcNAc(b1-2)[Neu5Ac(a2-3)Gal(b1-4)GlcNAc(b1-6)]Man(a1-6)[Neu5Ac(a2-3)Gal(b1-4)GlcNAc(b1-2)Man(a1-3)]Man(b1-4)GlcNAc(b1-4)GlcNAc
How it was run: as §1

[26] = target: Neu5Ac(a2-3)Gal(b1-4)GlcNAc(b1-2)[Neu5Ac(a2-3)Gal(b1-4)GlcNAc(b1-6)]Man(a1-6)[Neu5Ac(a2-3)Gal(b1-4)GlcNAc(b1-2)Man(a1-3)][GlcNAc(b1-4)]Man(b1-4)GlcNAc(b1-4)GlcNAc
How it was run: as §1

[27] = target: Neu5Ac(a2-3)Gal(b1-4)GlcNAc(b1-3)Gal
How it was run: as §1

[28] = target: Neu5Ac(a2-3)Gal(b1-4)GlcNAc(b1-3)Gal(b1-3)GlcNAc
How it was run: as §1

[29] = target: Neu5Ac(a2-3)Gal(b1-4)GlcNAc(b1-3)Gal(b1-4)GlcNAc
How it was run: as §1

[30] = target: Neu5Ac(a2-3)Gal(b1-4)GlcNAc(b1-3)Gal(b1-4)GlcNAc(b1-2)Man(a1-3)[Neu5Ac(a2-3)Gal(b1-4)GlcNAc(b1-3)Gal(b1-4)GlcNAc(b1-2)Man(a1-6)]Man(b1-4)GlcNAc(b1-4)GlcNAc
How it was run: as §1

[31] = target: Neu5Ac(a2-3)Gal(b1-4)GlcNAc(b1-3)Gal(b1-4)GlcNAc(b1-3)Gal(b1-4)GlcNAc
How it was run: as §1

[32] = target: Neu5Ac(a2-3)Gal(b1-4)GlcNAc(b1-3)Gal(b1-4)GlcNAc(b1-3)Gal(b1-4)GlcNAc(b1-2)Man(a1-3)[Neu5Ac(a2-3)Gal(b1-4)GlcNAc(b1-3)Gal(b1-4)GlcNAc(b1-3)Gal(b1-4)GlcNAc(b1-2)Man(a1-6)]GalNAc
How it was run: as §1

[33] = target: Neu5Ac(a2-3)Gal(b1-4)GlcNAc(b1-3)Gal(b1-4)GlcNAc(b1-3)GalNAc
How it was run: as §1

[34] = target: Neu5Ac(a2-3)Gal(b1-4)GlcNAc(b1-3)Gal(b1-4)GlcNAc(b1-3)[Neu5Ac(a2-3)Gal(b1-4)GlcNAc(b1-3)Gal(b1-4)GlcNAc(b1-6)]GalNAc
How it was run: as §1

[35] = target: Neu5Ac(a2-3)Gal(b1-4)GlcNAc(b1-3)Gal(b1-4)GlcNAc(b1-6)[Gal(b1-3)]GalNAc
How it was run: as §1

[36] = target: Neu5Ac(a2-3)Gal(b1-4)GlcNAc(b1-3)Gal(b1-4)[Fuc(a1-3)]GlcNAc
How it was run: as §1

[37] = target: Neu5Ac(a2-3)Gal(b1-4)GlcNAc(b1-3)GalNAc
How it was run: as §1

B1: AT5G24760(45) (Arabidopsis thaliana), Q8LEB2 (protein)
chain: MSASSSSFEQPQVITCNAAVAWRAGEPLVMEEVEVSPPQPLEIRIKVVCTSLCRSDLSAWESQSLLPRIFGHEAAGIVESIGEGVTEFEKGDHVLAVFTGECGSCRHCISGKSNMCQVLGMERKGLMHSDQKTRFSIKGKPVYHYCAVSSFSEYTVVHSGCAVKVDPLAPLHKICLLSCGVAAGLGAAWNVADVQKGSSVVIFGLGTVGLSVAQGAKLRGAAQILGVDINPAKAEQAKTFGVTDFINSNDLSEPIPQVIKRMTGGGADFSFECVGDTGIATTALQSCSDGWGMTVTLGVPKAKPEVSAHYGLFLSGKSLKGTLFGGWKPKSDLPSLIDKYMNKEIMIDEFITHNLSFDEINKAFVLMREGKCLRCVLHMPK
B1 was tested, and the “glycan array binding signal (z-score)” value [1] was -0.186, the “glycan array binding signal (z-score)” value [2] was 2.23 and the “glycan array binding signal (z-score)” value [3] was -0.816. The “glycan array binding signal (z-score)” value [4] was 0.213, the “glycan array binding signal (z-score)” value [5] was -0.618 and the “glycan array binding signal (z-score)” value [6] was -0.553. The “glycan array binding signal (z-score)” value [7] was -1.04, the “glycan array binding signal (z-score)” value [8] was -0.602 and the “glycan array binding signal (z-score)” value [9] was -0.604. For the same binder, the “glycan array binding signal (z-score)” value [10] was -0.34, the “glycan array binding signal (z-score)” value [11] was -0.571 and the “glycan array binding signal (z-score)” value [12] was -0.859. For the same binder, the “glycan array binding signal (z-score)” value [13] was -0.437, the “glycan array binding signal (z-score)” value [14] was -1.03 and the “glycan array binding signal (z-score)” value [15] was -0.703. For the same binder, the “glycan array binding signal (z-score)” value [16] was -0.892, the “glycan array binding signal (z-score)” value (Neu5Ac(a2-3)Gal(b1-4)Glc) was -0.264 and the “glycan array binding signal (z-score)” value [17] was -0.409. For the same binder, the “glycan array binding signal (z-score)” value [18] was -0.578, the “glycan array binding signal (z-score)” value [19] was -0.597 and the “glycan array binding signal (z-score)” value [20] was -1.3. The “glycan array binding signal (z-score)” value [21] was -0.717, the “glycan array binding signal (z-score)” value [22] was -1.3 and the “glycan array binding signal (z-score)” value [23] was -0.97. The “glycan array binding signal (z-score)” value [24] was -0.784, the “glycan array binding signal (z-score)” value [25] was -0.601 and the “glycan array binding signal (z-score)” value [26] was -1.12. The “glycan array binding signal (z-score)” value [27] was -0.951, the “glycan array binding signal (z-score)” value [28] was -0.66 and the “glycan array binding signal (z-score)” value [29] was -0.818. The “glycan array binding signal (z-score)” value [30] was -0.337, the “glycan array binding signal (z-score)” value [31] was -0.884 and the “glycan array binding signal (z-score)” value [32] was 0.612. For the same binder, the “glycan array binding signal (z-score)” value [33] was -1.13, the “glycan array binding signal (z-score)” value [34] was -0.691 and the “glycan array binding signal (z-score)” value [35] was -0.304. For the same binder, the “glycan array binding signal (z-score)” value [36] was -0.927 and the “glycan array binding signal (z-score)” value [37] was -0.675.

From the supplement of paper PMC8728848
